These are yes or no findings as the source states them, for the method shown. Binding seen in cells or lysates may run through a third protein. A result given as binding can be weak or reduced; the word gives no strength.
Target: Hsp90
Test: co-IP with anti-Hsp90 antibody (discussion)

B1: MOP4 (protein)
chain: MDEDEKDRAKRASRNKSEKKRRDQFNVLIKELSSMLPGNTRKMDKTTVLEEVIGFLQKHNEVSAQTEICDIQQDWKPSFLSNEEFTQLMLEALDGFIIAVTTDGSIIYVSDSITPLLGHLPSDVMDQNLLNFLPEQEHSEVYKILSSHMLVTDSPSPEYLKSDGDLEFYCHLLRGSLNPKEFPTYEYIKFVGNFRSYNNVPSPSCNGFDNTLSRPCRVPLGKEVCFIATVRLATPQFLKEMCIVDEPLEEFTSRHSLEWKFLFLDHRAPPIIGYLPFEVLGTSGYDYYHIDDLELLARCHQHLMQFGKGKSCCYRFLTKGQQWIWLQTHYYITYHQWNSKPEFIVCTHSVVSYADVRVERRQELALEDPPSEALHSSALKDKGSSLEPRQHFNALDVGASGLNTSHSPSASSRSSHKSSHTAMSEPTSTPTKLMAEASTPALPRSATLPQELPVPGLSQAATMPAPLPSPSSCDLTQQLLPQTVLQSTPAPMAQFSAQFSMFQTIKDQLEQRTRILQANIRWQQEELHKIQEQLCLVQDSNVQMFLQQPAVSLSFSSTQRPEAQQQLQQRSAAVTQPQLGAGPQLPGQISSAQVTSQHLLRESSVISTQGPKPMRSSQLMQSSGRS
- binding: binds
